Values quoted from earlier work, collected in patent publication US20260151414A1, “COMPOSITIONS AND THERAPEUTIC METHODS FOR TREATING CHRONIC SEQUALAE FOLLOWING VIRAL INFECTIONS” (priority 2023, published 2026).
At least one structure is not confirmed: it was looked up by name or label, or the drawing left a doubt.

Test system: depression and anxiety symptoms
Conditions: persist for at least six months after a single active treatment; cited from earlier work

For `CN(C)CCc1c[nH]c2cccc(OP(=O)(O)O)c12` [Psilocybin], the “depression and anxiety symptoms” value is given as “substantial decreases”.
